Laboratory results reported in patent publication US20240383874A1, “BENZENE RING DERIVATIVE, AND COMPOSITION AND PHARMACEUTICAL USE THEREOF” (Xizang Haisco Pharmaceutical Co., Ltd., priority 2020, published 2024).
Where two headings read alike, the source gives them in different places. Some of these results come from one statement about several compounds together.

Test system: 22RV1 cells
Test: Experiment 2 on inhibiting 22RV1 cell proliferation (7 days, CellTiter-Glo)
Format: cell-based
Conditions: 1% css-FBS phenol red-free medium, incubated with compound 7 days
Description: Prostate cancer cells 22RV1 were purchased from ATCC, the cell medium was RPMI 1640+10% FBS, and the cells were cultured in an incubator at 37° C. under 5% CO2. On day 1, the cells in an exponential phase were collected. With a 1% css-FBS phenol red-free medium, the cell suspension was adjusted to a corresponding concentration, plated at 2000 cells/well and incubated overnight. On day 2, compounds at different concentrations were added, and the plate was placed in the incubator and incubated for further 7 days. After the incubation was completed, according to operation instructions for a CellTiter-Glo kit (Promega, G7573), 50 μL of CTG solution, which was already pre-melted and equilibrated to room temperature, was added to each well, and the mixtures were uniformly mixed for 2 min using a microplate shaker. The plate was placed at room temperature for 10 min, and then fluorescence signal values were measured using a microplate reader (PHERAstar FSX). The results were processed according to formula (2), the survival rate of the compound at different concentrations was calculated, and the IC50 value of the compound with a survival rate of 50% was calculated using origin9.2 software with DoseResp function, wherein RLU compound was the readout of the treated group, and RLU control was the average value of the DMSO vehicle control group.

## CC(Oc1ccc(C(C)(C)c2cc(Cl)cc(C#N)c2)cc1)c1ccnc(N2CCC(CN3CCC(C4CCN(c5cc6c(cc5F)C(=O)N(C5CCC(=O)NC5=O)C6=O)CC4)CC3)CC2)n1 (stereo not drawn) [Compound 127, 3-chloro-5-(2-(4-(1-(2-(4-((1′-(2-(2,6-dioxopiperidin-3-yl)-6-fluoro-1,3-dioxoisoindolin-5-yl)-[4,4′-bipiperidin]-1-yl)methyl)piperidin-1-yl)pyrimidin-4-yl)ethoxy)phenyl)propan-2-yl)benzonitrile]
Listed as compound 127, read-out: IC50 values on proliferation inhibition of 22RV1 cells
  IC50: < 5 µM

## CC(C)(c1ccc(OCc2ccnc(N3CCN(C4CCN(C5CN(c6ccc7c(c6)C(=O)N(C6CCC(=O)NC6=O)C7=O)C5)CC4)CC3)n2)cc1)c1cc(Cl)cc(C#N)c1 (stereo not drawn) [Compound 10, 3-chloro-5-(2-(4-((2-(4-(1-(1-(2-(2,6-dioxopiperidin-3-yl)-1,3-dioxoisoindolin-5-yl)azetidin-3-yl)piperidin-4-yl)piperazin-1-yl)pyrimidin-4-yl)methoxy)phenyl)propan-2-yl)benzonitrile]
Listed as compound 10, read-out: IC50 values on proliferation inhibition of 22RV1 cells
  IC50: < 5 µM

## CC(C)(c1ccc(OCc2ccnc(N3CCN(CC4CCN(C5CCN(c6cccc7c6C(=O)N(C6CCC(=O)NC6=O)C7=O)CC5)CC4)CC3)n2)cc1)c1cc(Cl)c(OCCCl)c(C#N)c1 (stereo not drawn) [Compound 12, 3-chloro-2-(2-chloroethoxy)-5-(2-(4-((2-(4-((1′-(2-(2,6-dioxopiperidin-3-yl)-1,3-dioxoisoindolin-4-yl)-[1,4′-bipiperidin]-4-yl)methyl)piperazin-1-yl)pyrimidin-4-yl)methoxy)phenyl)propan-2-yl)benzonitrile]
Listed as compound 12, read-out: IC50 values on proliferation inhibition of 22RV1 cells
  IC50: < 5 µM

## CC(C)(c1ccc(OCc2ccnc(N3CC4(CCN(C5CCN(CC6CCN(c7cccc8c7C(=O)N(C7CCC(=O)NC7=O)C8=O)CC6)CC5)CC4)C3)n2)cc1)c1cc(Cl)c(OCCCl)c(C#N)c1 (stereo not drawn) [Compound 25, 3-chloro-2-(2-chloroethoxy)-5-(2-(4-((2-(7-(1-((1-(2-(2,6-dioxopiperidin-3-yl)-1,3-dioxoisoindolin-4-yl)piperidin-4-yl)methyl)piperidin-4-yl)-2,7-diazaspiro[3.5]nonan-2-yl)pyrimidin-4-yl)methoxy)phenyl)propan-2-yl)benzonitrile]
Listed as compound 25, read-out: IC50 values on proliferation inhibition of 22RV1 cells
  IC50: < 5 µM

## CC(C)(c1ccc(OCc2ccnc(N3CCC4(CC3)CCN(C3CCN(CC5CCN(c6ccc7c(c6)C(=O)N(C6CCC(=O)NC6=O)C7=O)CC5)CC3)CC4)n2)cc1)c1cc(Cl)c(OCCCl)c(C#N)c1 (stereo not drawn) [Compound 27, 3-chloro-2-(2-chloroethoxy)-5-(2-(4-((2-(9-(1-((1-(2-(2,6-dioxopiperidin-3-yl)-1,3-dioxoisoindolin-5-yl)piperidin-4-yl)methyl)piperidin-4-yl)-3,9-diazaspiro[5.5]undecan-3-yl)pyrimidin-4-yl)methoxy)phenyl)propan-2-yl)benzonitrile]
Listed as compound 27, read-out: IC50 values on proliferation inhibition of 22RV1 cells
  IC50: < 5 µM

## CC(C)(c1ccc(OCc2ccnc(N3CC4(CCN(C5CCN(CC6CCN(c7ccc8c(c7)C(=O)N(C7CCC(=O)NC7=O)C8=O)CC6)CC5)CC4)C3)n2)cc1)c1cc(Cl)c(OCCCl)c(C#N)c1 (stereo not drawn) [Compound 24, 3-chloro-2-(2-chloroethoxy)-5-(2-(4-((2-(7-(1-((1-(2-(2,6-dioxopiperidin-3-yl)-1,3-dioxoisoindolin-5-yl)piperidin-4-yl)methyl)piperidin-4-yl)-2,7-diazaspiro[3.5]nonan-2-yl)pyrimidin-4-yl)methoxy)phenyl)propan-2-yl)benzonitrile]
Listed as compound 24, read-out: IC50 values on proliferation inhibition of 22RV1 cells
  IC50: < 5 µM

## CC(C)(c1ccc(OCc2ccnc(N3CC4(CCN(C5CCN(C6CN(c7ccc8c(c7)C(=O)N(C7CCC(=O)NC7=O)C8=O)C6)CC5)CC4)C3)n2)cc1)c1cc(Cl)c(OCCCl)c(C#N)c1 (stereo not drawn) [Compound 23, 3-chloro-2-(2-chloroethoxy)-5-(2-(4-((2-(7-(1-(1-(2-(2,6-dioxopiperidin-3-yl)-1,3-dioxoisoindolin-5-yl)azetidin-3-yl)piperidin-4-yl)-2,7-diazaspiro[3.5]nonan-2-yl)pyrimidin-4-yl)methoxy)phenyl)propan-2-yl)benzonitrile]
Listed as compound 23, read-out: IC50 values on proliferation inhibition of 22RV1 cells
  IC50: < 5 µM

## CC(C)(c1ccc(OCc2ccnc(N3CCC4(CC3)CN(C3CCN(C5CN(c6ccc7c(c6)C(=O)N(C6CCC(=O)NC6=O)C7=O)C5)CC3)C4)n2)cc1)c1cc(Cl)c(OCCCl)c(C#N)c1 (stereo not drawn) [Compound 20, 3-chloro-2-(2-chloroethoxy)-5-(2-(4-((2-(2-(1-(1-(2-(2,6-dioxopiperidin-3-yl)-1,3-dioxoisoindolin-5-yl)azetidin-3-yl)piperidin-4-yl)-2,7-diazaspiro[3.5]nonan-7-yl)pyrimidin-4-yl)methoxy)phenyl)propan-2-yl)benzonitrile]
Listed as compound 20, read-out: IC50 values on proliferation inhibition of 22RV1 cells
  IC50: < 5 µM

## CC(C)(c1ccc(OCc2ccnc(N3C[C@@H]4CN(C5CCN(C6CN(c7ccc8c(c7)C(=O)N(C7CCC(=O)NC7=O)C8=O)C6)CC5)C[C@@H]4C3)n2)cc1)c1cc(Cl)c(OCCCl)c(C#N)c1 (stereo partly drawn) [Compound 17, 3-chloro-2-(2-chloroethoxy)-5-(2-(4-((2-((3aR,6aS)-5-(1-(1-(2-(2,6-dioxopiperidin-3-yl)-1,3-dioxoisoindolin-5-yl)azetidin-3-yl)piperidin-4-yl)hexahydropyrrolo[3,4-c]pyrrol-2(1H)-yl)pyrimidin-4-yl)methoxy)phenyl)propan-2-yl)benzonitrile]
Listed as compound 17, read-out: IC50 values on proliferation inhibition of 22RV1 cells
  IC50: < 5 µM

## CC(C)(c1ccc(OCc2ccnc(N3CCN(CC4CCN(CC5CCN(c6cccc7c6C(=O)N(C6CCC(=O)NC6=O)C7=O)CC5)CC4)CC3)n2)cc1)c1cc(Cl)c(OCCCl)c(C#N)c1 (stereo not drawn) [Compound 14, 3-chloro-2-(2-chloroethoxy)-5-(2-(4-((2-(4-((1-((1-(2-(2,6-dioxopiperidin-3-yl)-1,3-dioxoisoindolin-4-yl)piperidin-4-yl)methyl)piperidin-4-yl)methyl)piperazin-1-yl)pyrimidin-4-yl)methoxy)phenyl)propan-2-yl)benzonitrile]
Listed as compound 14, read-out: IC50 values on proliferation inhibition of 22RV1 cells
  IC50: < 5 µM

## CC(C)(c1ccc(OCc2ccnc(N3CCN(CC4CCN(CC5CCN(c6ccc7c(c6)C(=O)N(C6CCC(=O)NC6=O)C7=O)CC5)CC4)CC3)n2)cc1)c1cc(Cl)c(OCCCl)c(C#N)c1 (stereo not drawn) [Compound 13, 3-chloro-2-(2-chloroethoxy)-5-(2-(4-((2-(4-((1-((1-(2-(2,6-dioxopiperidin-3-yl)-1,3-dioxoisoindolin-5-yl)piperidin-4-yl)methyl)piperidin-4-yl)methyl)piperazin-1-yl)pyrimidin-4-yl)methoxy)phenyl)propan-2-yl)benzonitrile]
Listed as compound 13, read-out: IC50 values on proliferation inhibition of 22RV1 cells
  IC50: < 5 µM

## CC(C)(c1ccc(OCc2ccnc(N3C[C@@H]4CN(C5CCN(CC6CCN(c7ccc8c(c7)C(=O)N(C7CCC(=O)NC7=O)C8=O)CC6)CC5)C[C@@H]4C3)n2)cc1)c1cc(Cl)c(OCCCl)c(C#N)c1 (stereo partly drawn) [Compound 16, 3-chloro-2-(2-chloroethoxy)-5-(2-(4-((2-((3aR,6aS)-5-(1-((1-(2-(2,6-dioxopiperidin-3-yl)-1,3-dioxoisoindolin-5-yl)piperidin-4-yl)methyl)piperidin-4-yl)hexahydropyrrolo[3,4-c]pyrrol-2(1H)-yl)pyrimidin-4-yl)methoxy)phenyl)propan-2-yl)benzonitrile]
Listed as compound 16, read-out: IC50 values on proliferation inhibition of 22RV1 cells
  IC50: < 5 µM
